Results: PubChem BioAssay AID1347426 (Functional Genomics Laboratory (NCATS/FGL), 2020)
Among all 31,000 sequences or so, about 1,400 (4.5%) were called active.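 Rule for the calls: active = median seed-adjusted z-score above 1 or below -1; inactive = the rest.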 The list shows a part of the results.

assay: Novel Modifiers of Survival Motor Neuron (SMN) Protein: Gene Identification via Genome-wide siRNA Screen; details: HEK293T SMN2-luciferase reporter, siRNA knockdown, 72 h; actives lie on both sides;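 note: luminescence tracks full-length SMN protein made from the SMN2 reporter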
How it was run: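 HEK293T cells stably expressing an SMN2 splicing/cDNA-luciferase reporter were reverse-transfected with a druggable-genome siRNA library and read by luminescence at 72 hours; hits defined by MAD score above 1.0 or below -1.0.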

Sequence | median seed-adjusted z-score
CGUCGGAUGUGCUACUUGATT against COPG | inactive: 0.175
GGAUCCAACUCGACAACAATT against SSBP2 | inactive: 0
AGCUUCCAGUCACAGCAUATT against PAX5 | inactive: 0.285
GGCUGAGAUGCGUCGUAAATT against ARCN1 | active: -1.25
CCCUGUCUAUAAUUUCUUUTT against DGCR8 | inactive: -0.266
CUUCCUGUAUUGCUAUUAATT against ACTR3 | inactive: -0.7
GGGCAAUGCCUAGAAGAAUTT against PDE6D | inactive: 0
GAACUUCAAUAGAUCAGUUTT against GSPT1 | inactive: -0.761
AACCAUUUCUCAAUCCUUATT against ZNF43 | inactive: 0.29
GGUGGGUCUUUUUCGCAAATT against STARD13 | inactive: -0.0337
GAAUAAGUGAAACACGGAATT against MAP3K7IP2 | inactive: 0.0195
CAUGUCUUCUGAAUAGCAATT against MOBKL3 | inactive: 0.575
GUUUGCAUGUGACAAUGGATT against PPTC7 | inactive: 0.49
GUUCAGCACUCAUUAGACATT against ZNF17 | inactive: 0.579
UCGUGGUUGUUAAUUUGAATT against CSNK1E | inactive: -0.796
AAAUCUUGGUGCUUCCAUATT against SERPINB6 | inactive: 0.0155
GAAUUAACUUCAUGGUGAATT against PPM1K | inactive: 0.154
GCGAAUUGGGAAUCAGUAATT against POLR3F | inactive: 0
GCCCAUCCUGGUCAUGUUATT against COX8A | inactive: -0.0749
GGACCUUCGUAGCAUUGCATT against E2F1 | inactive: -0.211
GGACAUGAGAGGAACAGUUTT against ADCY1 | inactive: 0.154
AGUUCGCCGUGGUGCACAATT against NAT8L | inactive: 0

Sequence | median seed-adjusted z-score
GGAUCGAAGGAGACAAACUTT against RBP7 | inactive: 0.0709
GGAGUUUAUGAAUCAGCUATT against KLC1 | inactive: -0.0912
GAAUUGGGCUUGUUGAUAUTT against KCNB2 | active: 1.22
AGCUCACCCUGAAGAACAATT against LIMS2 | inactive: 0
CGAGCAAAGUUCUGGGUGATT against RAB24 | inactive: 0.123
GGACCUCGUUAUCUAUCUUTT against SLC35A3 | inactive: 0.321
CAUCAUCUCUGGAACUCUUTT against ALAS2 | inactive: -0.142
GGGCAUGUCUUAACGAAGATT against DMRT2 | inactive: -0.344
CACCCUCGCAGUCUCCAAATT against HSPA12B | inactive: -0.141
CCUAGAAGUUUGUCACUGATT against COX6C | inactive: -0.0449
AGGUGACCGGCUUCAAAAATT against SNX18 | inactive: 0
GAGCAGCUGUAUAAGCUCATT against MAP3K6 | inactive: 0
CUAGAAGAGACGAAACGAATT against ESCO1 | inactive: 0.755
CGAGAUCGAGUUCAUCUUUTT against ACHE | inactive: 0
GAGUUUGAGAAGACCCAGATT against BCAR1 | inactive: -0.469
GCCUGUCGGUCAUUGAGAATT against AQP8 | inactive: -0.763
CUUUAAUAAAGCUAGGAUATT against PPP1R14B | inactive: 0.205
AGCACAGAAUUACACGUAUTT against MAN2B2 | inactive: 0.0555
GGAACUGCUGCAUUAGAUATT against ITCH | inactive: 0.199
GCUUCAGGAUGUGCCCAAATT against ENTPD2 | inactive: 0.0319
GGUUUCUAAGGUAAACGGATT against JARID2 | inactive: 0.115
GGGAUCUAGUGAAUAAACUTT against EIF2B4 | inactive: 0

Sequence | median seed-adjusted z-score
GGACCAUCUCGAACCACCATT against LIMD2 | inactive: 0.418
GAGUUGAAACAGAGAUUUATT against 14-Sep | inactive: 0.227
AGUCAGCACAGUCAAGUCATT against GPX6 | inactive: 0.35
CUACCUGCUGAAUAACUAUTT against ALG12 | inactive: -0.401
GCCGUGAUGUUGUCACUGATT against PPP2R5D | inactive: 0.848
GGCUUUGCGGAGGAAGAAATT against CHMP4A | inactive: -0.209
GUGUGGACUUUCAACCUGATT against DNAH9 | inactive: 0.656
GCCGCUUCCACCAUACCUATT against RUNX3 | inactive: -0.489
CUACCGAUGCUGAAAGACATT against PGM3 | inactive: -0.527
GGGAAAAGCAAGUAGCUCUTT against SSX6 | inactive: -0.493
GAAGGAGAUUUGCACAGGATT against CARM1 | inactive: 0.317
UGAUAAGGAUAACAAGAGATT against CAMP | inactive: -0.622
GCAUAACUUGAAUAGUACATT against AKAP11 | inactive: -0.0405
GCUCAGAGAUGACACCGAATT against FAH | inactive: -0.0836
CCAACCUAAUUAUGGAGGATT against PCDHGB4 | inactive: 0.176
GCCCUAAAAGUGACCAUCATT against CCR9 | inactive: 0.16
GCACCAUCACGGAUGUCCATT against EBI3 | inactive: -0.206
GUACAACUCUGACAAGGGATT against TOPORS | inactive: 0.381
CCAUUCACAUGGACUUUUUTT against CYP3A4 | inactive: 0.633
CUAUGUAUUUGACAGCGAATT against GULP1 | inactive: -0.0337
CGAUGAUCCUGACAAUGCUTT against OMD | inactive: 0
GGUGUCACCCUGUGAAUUUTT against MAP1S | inactive: 0.0941

Sequence | median seed-adjusted z-score
GCGGAGGAGUUGAAUCGAATT against DDX43 | inactive: -0.452
CCUGAGCCACGUUAUCUCGTT against HBQ1 | inactive: -0.578
CUCUGAUAUUUGACCGGGATT against WDR64 | inactive: -0.25
GGUUGUAGUUCACGGCUUATT against ZNF7 | inactive: 0
GAACGAGUGAGAGAAUAUATT against TTC9C | inactive: -0.571
CAGGAUAUCGAAUCCCUAATT against PPFIA2 | inactive: 0.176
CCAUAGCCCGAGUGAUUGATT against CRYZL1 | inactive: 0.0481
CAGUGAAGCUAUCAAGUUATT against PSMA8 | inactive: 0.407
UCCUAGUCUCUAUCAUUAATT against LTC4S | inactive: 0
GUCGAGUAUUCAUCCGAGATT against DHX57 | inactive: -0.138
GAAUCUACCUUGCUGCUCATT against G6PC | inactive: -0.628
GAGGAAAUCUCGGACCUUATT against MYH6 | inactive: 0
GGCGCAAUGAUAAAUCUUATT against COL4A6 | inactive: 0.0681
GCAUCGUCUCCUAUGGAAATT against CTSG | inactive: -0.47
GAAGCACAAUAAACGGGUATT against HYOU1 | inactive: 0.0557
CAACUUCAUGGUUCGAAAUTT against OTC | inactive: 0.496
GGCAAUGACCGCUAAAGGATT against COX6B1 | inactive: -0.706
CCAGAGACCCUGUUUAAGATT against KCNF1 | inactive: -0.19
CCAUUGGAGCUUCACCGAATT against POLA1 | inactive: -0.317
GUUGGGAACUGUCGACAAATT against EIF3F | inactive: -0.0214
AGAUCUCGGUUGACCAACATT against KRT4 | inactive: 0.336
GAGCGAAGGUCAUAAUACATT against MORC4 | inactive: 0.13

Five entries drawn at random from those above, as already listed:
Sequence | median seed-adjusted z-score
CCAGAGACCCUGUUUAAGATT against KCNF1 | inactive: -0.19
GUCGAGUAUUCAUCCGAGATT against DHX57 | inactive: -0.138
AGAUCUCGGUUGACCAACATT against KRT4 | inactive: 0.336
CAGUGAAGCUAUCAAGUUATT against PSMA8 | inactive: 0.407
GAAUCUACCUUGCUGCUCATT against G6PC | inactive: -0.628

(listing goes on)

Sequence | median seed-adjusted z-score
CUCAGAGUGCAGAACCACATT against TRIM15 | inactive: 0.292
GAGGCAAAGUGGUAUAUGATT against DPYS | inactive: -0.288
CCUCAAUCUUGACAUAUAUTT against SKIP | inactive: 0.804
CCACAUGAAAUGAAGAUCATT against NDUFA10 | inactive: -0.392
GGACAUAAUAUAUGGGUGATT against TNFRSF10A | inactive: 0.129
CACCCUGGAUUGUCUUCAATT against HCN4 | inactive: -0.282
CCAUCUACCUACUCAACAATT against MC5R | inactive: 0.225
GAGCUGUAUUUCUAUGUCATT against PLXNA3 | inactive: 0.255
GGAUUGCCCAGGGUUCCUATT against DGKQ | inactive: -0.0985
CCUCAUGACUUCGCAAAUATT against COPB1 | inactive: -0.839
ACCAGAUUGUAUUAAUAUUTT against SOX18 | inactive: 0.0663
CAACUUUGAUGUGCGUGAATT against TOP2A | inactive: -0.187
CUCUAUGUAUGACAAUGAATT against SERTAD1 | inactive: 0.376
GUUCCUAUUUAAUCCCUAUTT against HOXB8 | inactive: 0.133
GCCUGUCUAUAAUUGGAGATT against SPIC | inactive: 0.379
CGUGGGUGUUGACUUCAAATT against RAB12 | inactive: -0.185
GGAUUUCGAUGUCAGACUUTT against RAF1 | inactive: 0
CAGUGUGGAUGUUCCAAAUTT against LRFN4 | inactive: -0.076
GGAAACUAGCUGUUAUACATT against USP40 | inactive: 0.00437
GAUCUGCAAUCCUUAUUAATT against ZNF208 | inactive: 0.265
